Assay results taken from publication PMC8556400.
No constants are given. Whether binding was seen depends on the method and setting. In cells and extracts the contact can be indirect. Here binding means that the protein was enriched with, or labelled near, the bait; the list need not be complete.

Chains of the proteins cited; added tags and fusions are not shown.
UniProt Q8K310: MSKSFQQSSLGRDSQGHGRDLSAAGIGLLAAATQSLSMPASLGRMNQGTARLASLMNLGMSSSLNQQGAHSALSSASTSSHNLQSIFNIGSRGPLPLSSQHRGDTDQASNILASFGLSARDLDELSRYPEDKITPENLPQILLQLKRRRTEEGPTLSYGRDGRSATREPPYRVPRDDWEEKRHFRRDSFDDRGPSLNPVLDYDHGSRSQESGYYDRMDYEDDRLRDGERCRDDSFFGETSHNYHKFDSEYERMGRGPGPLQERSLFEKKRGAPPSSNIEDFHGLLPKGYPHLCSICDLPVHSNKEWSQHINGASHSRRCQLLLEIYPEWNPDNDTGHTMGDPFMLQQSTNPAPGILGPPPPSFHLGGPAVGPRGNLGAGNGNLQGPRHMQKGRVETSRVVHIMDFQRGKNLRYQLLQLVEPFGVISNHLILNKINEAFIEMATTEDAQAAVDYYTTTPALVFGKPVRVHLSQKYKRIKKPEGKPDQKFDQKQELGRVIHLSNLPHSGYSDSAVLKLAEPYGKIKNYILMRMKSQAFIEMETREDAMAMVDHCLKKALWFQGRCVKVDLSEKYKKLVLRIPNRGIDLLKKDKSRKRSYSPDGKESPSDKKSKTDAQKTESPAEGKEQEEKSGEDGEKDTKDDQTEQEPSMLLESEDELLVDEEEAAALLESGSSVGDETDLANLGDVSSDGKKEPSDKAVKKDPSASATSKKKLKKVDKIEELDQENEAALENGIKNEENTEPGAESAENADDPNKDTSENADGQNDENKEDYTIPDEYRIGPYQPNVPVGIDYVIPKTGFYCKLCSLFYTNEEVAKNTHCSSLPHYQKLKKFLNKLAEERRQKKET
UniProt P23198: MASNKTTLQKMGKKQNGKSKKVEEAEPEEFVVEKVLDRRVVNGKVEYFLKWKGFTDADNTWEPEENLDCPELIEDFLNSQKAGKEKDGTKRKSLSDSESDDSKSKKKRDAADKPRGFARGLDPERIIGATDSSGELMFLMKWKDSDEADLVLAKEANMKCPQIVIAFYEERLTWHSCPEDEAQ

B1: Esco2 (cohesin acetyltransferase) (protein, UniProt Q8CIB9 1-592)
chain: MMATCTPRKRKRYTLNADNDDSLLTDISSSKLRCAENLFPSPNKKHNYQSSVQKEDKSCSHQLHFPSSPLKTTENSRFSFANHSSLFKPAMSTVSFYSKEKYYLNPLERKLIRECRSICLATESGDKPIPSVTENIQRKPVCTKKNKKKQKSLTAKYQPNYKHIKSKSRNLKNSKPNQVTYKPVVDQENSCFPAKNYPNSPPRVLSQKIKPQVTLQGGAAFFVRKRNSLKKLPLEDKPLLLQKNLPEVPEGAPEAKQIPKSLLVDEKSSVKVQNARSKNEEKLRKNPSGAVVSSKECNLDKHDFPSENSLDENKTISPESVYPIFNVSSVNTKRPEEQSSVGSTACTNFLKQTNVPKNINSRDTNKGGKDQLVIDAGQKHFGTTVCKSCGMIYTASNPEDEIQHLQHHHRFLEGIKFVGWKRERVVAEFWDGKIVLVLPRDPSYAIKKVEDVQELVDLELGFQQTVPVCPDKTKTFLFIDEKRVVGCLIAEPIKQAFRVLSEPSASKECSRAWRCSDVPEPAICGISRIWVFRLKRRKRIARRLVDTVRNCFMFGCFLSTNEIAFSDPTPDGKLFATKYCNTPNFLVYNFHN
B2: CCCTC-binding factor (CTCF) (protein, UniProt Q61164 1-736)
chain: MEGEAVEAIVEESETFIKGKERKTYQRRREGGQEEDACHLPQNQTDGGEVVQDVNSSVQMVMMEQLDPTLLQMKTEVMEGTVAPEAEAAVDDTQIITLQVVNMEEQPINIGELQLVQVPVPVTVPVATTSVEELQGAYENEVSKEGLAESEPMICHTLPLPEGFQVVKVGANGEVETLEQGELPPQEDSSWQKDPDYQPPAKKTKKTKKSKLRYTEEGKDVDVSVYDFEEEQQEGLLSEVNAEKVVGNMKPPKPTKIKKKGVKKTFQCELCSYTCPRRSNLDRHMKSHTDERPHKCHLCGRAFRTVTLLRNHLNTHTGTRPHKCPDCDMAFVTSGELVRHRRYKHTHEKPFKCSMCDYASVEVSKLKRHIRSHTGERPFQCSLCSYASRDTYKLKRHMRTHSGEKPYECYICHARFTQSGTMKMHILQKHTENVAKFHCPHCDTVIARKSDLGVHLRKQHSYIEQGKKCRYCDAVFHERYALIQHQKSHKNEKRFKCDQCDYACRQERHMIMHKRTHTGEKPYACSHCDKTFRQKQLLDMHFKRYHDPNFVPAAFVCSKCGKTFTRRNTMARHADNCAGPDGVEGENGGETKKSKRGRKRKMRSKKEDSSDSEENAEPDLDDNEEEEEPAVEIEPEPEPQPQPPPPPQPVAPAPPPAKKRRGRPPGRTNQPKQNQPTAIIQVEDQNTGAIENIIVEVKKEPDAEPAEGEEEEAQAATTDAPNGDLTPEMILSMMDR
B3: Rcc1 (regulator of chromosome condensation) (protein, UniProt Q8VE37 1-421)
chain: MPPKRIAKRRSPPEDAIPKSKKVKVSHRSHNTEPGLVLTLGQGDVGQLGLGESVLERKKPALVPLLQDVVQAEAGGMHTVCLSQSGQVYSFGCNDEGALGRDTSVEGSEMVPGKVELQEKVVQVSAGDSHTAALTEDGRVFLWGSFRDNNGVIGLLEPMKKSMVPVQVQLDAPVVKVASGNDHLVMLTNDGDLYTLGCGEQGQLGRVPELFANRGGRQGLGRLLVPRCVLLKSRGTRGRVRFQDAFCGAYFTFAISREGHVYGFGLSNYHQLGTPGTGSCFIPQNLTSFKNSTKSWVGFSGGQHHTVCMDSEGKAYSLGRAEYGRLGLGEGAEEKSIPTLISRLPVVSSVACGASVGYAVSKDGRVFAWGMGTNYQLGTGQDEDAWSPVEMTGKQLENRVVLTVSSGGQHTVLLVKDQAQS

Target: FlagBio-tagged Matr3 (biotinylated Matrin-3) (UniProt Q8K310)
Test: affinity purification with mass spectrometry; biotinylated FlagBio-Matr3 recovered with streptavidin magnetic beads from MEL cells expressing BirA; cells expressing only BirA as control; co-eluted proteins separated by SDS-PAGE, in-gel trypsin digestion, LC-MS/MS

Molecule | binding
Cbx3 (heterochromatin protein 1γ) (from UniProt P23198 1-183) | binds
B1 | binds
B2 | binds
B3 | binds
